Assay results as given in patent US20250283871A1, “COMPOSITIONS AND METHODS FOR MODULATING THE INTERACTION BETWEEN SS18-SSX FUSION ONCOPROTEIN AND NUCLEOSOMES” (Dana-Farber Cancer Institute, Inc., priority 2020, published 2025).

B1: ACSL1 (protein, UniProt P33121 1-698, looked up)
Long-chain-fatty-acid--CoA …: MQAHELFRYFRMPELVDFRQYVRTLPTNTLMGFGAFAALTTFWYATRPKPLKPPCDLSMQSVEVAGSGGARRSALLDSDEPLVYFYDDVTTLYEGFQRGIQVSNNGPCLGSRKPDQPYEWLSYKQVAELSECIGSALIQKGFKTAPDQFIGIFAQNRPEWVIIEQGCFAYSMVIVPLYDTLGNEAITYIVNKAELSLVFVDKPEKAKLLLEGVENKLIPGLKIIVVMDAYGSELVERGQRCGVEVTSMKAMEDLGRANRRKPKPPAPEDLAVICFTSGTTGNPKGAMVTHRNIVSDCSAFVKATENTVNPCPDDTLISFLPLAHMFERVVECVMLCHGAKIGFFQGDIRLLMDDLKVLQPTVFPVVPRLLNRMFDRIFGQANTTLKRWLLDFASKRKEAELRSGIIRNNSLWDRLIFHKVQSSLGGRVRLMVTGAAPVSATVLTFLRAALGCQFYEGYGQTECTAGCCLTMPGDWTAGHVGAPMPCNLIKLVDVEEMNYMAAEGEGEVCVKGPNVFQGYLKDPAKTAEALDKDGWLHTGDIGKWLPNGTLKIIDRKKHIFKLAQGEYIAPEKIENIYMRSEPVAQVFVHGESLQAFLIAIVVPDVETLCSWAQKRGFEGSFEELCRNKDVKKAILEDMVRLGKDSGLKPFEQVKGITLHPELFSIDNGLLTPTMKAKRPELRNYFRSQIDDLYSTIKV
B2: HMGCL (protein, UniProt P35914 28-325, looked up)
Hydroxymethylglutaryl-CoA …: TLPKRVKIVEVGPRDGLQNEKNIVSTPVKIKLIDMLSEAGLSVIETTSFVSPKWVPQMGDHTEVLKGIQKFPGINYPVLTPNLKGFEAAVAAGAKEVVIFGAASELFTKKNINCSIEESFQRFDAILKAAQSANISVRGYVSCALGCPYEGKISPAKVAEVTKKFYSMGCYEISLGDTIGVGTPGIMKDMLSAVMQEVPLAALAVHCHDTYGQALANTLMALQMGVSVVDSSVAGLGGCPYAQGASGNLATEDLVYMLEGLGIHTGVNLQKLLEAGNFICQALNRKTSSKVAQATCKL
B3: ALG8 (protein, UniProt Q9BVK2 1-526, looked up)
Dolichyl pyrophosphate …: MAALTIATGTGNWFSALALGVTLLKCLLIPTYHSTDFEVHRNWLAITHSLPISQWYYEATSEWTLDYPPFFAWFEYILSHVAKYFDQEMLNVHNLNYSSSRTLLFQRFSVIFMDVLFVYAVRECCKCIDGKKVGKELTEKPKFILSVLLLWNFGLLIVDHIHFQYNGFLFGLMLLSIARLFQKRHMEGAFLFAVLLHFKHIYLYVAPAYGVYLLRSYCFTANKPDGSIRWKSFSFVRVISLGLVVFLVSALSLGPFLALNQLPQVFSRLFPFKRGLCHAYWAPNFWALYNALDKVLSVIGLKLKFLDPNNIPKASMTSGLVQQFQHTVLPSVTPLATLICTLIAILPSIFCLWFKPQGPRGFLRCLTLCALSSFMFGWHVHEKAILLAILPMSLLSVGKAGDASIFLILTTTGHYSLFPLLFTAPELPIKILLMLLFTIYSISSLKTLFRKEKPLFNWMETFYLLGLGPLEVCCEFVFPFTSWKVKYPFIPLLLTSVYCAVGITYAWFKLYVSVLIDSAIGKTKKQ
B4: ATL2 (protein, UniProt Q8NHH9 1-583, looked up)
Atlastin-2: MAEGDEAARGQQPHQGLWRRRRTSDPSAAVNHVSSTTSLGENYEDDDLVNSDEVMKKPCPVQIVLAHEDDHNFELDEEALEQILLQEHIRDLNIVVVSVAGAFRKGKSFLLDFMLRYMYNKDSQSWIGGNNEPLTGFTWRGGCERETTGIQVWNEVFVIDRPNGTKVAVLLMDTQGAFDSQSTIKDCATVFALSTMTSSVQVYNLSQNIQEDDLQHLQLFTEYGRLAMEEIYQKPFQTLMFLIRDWSYPYEHSYGLEGGKQFLEKRLQVKQNQHEELQNVRKHIHNCFSNLGCFLLPHPGLKVATNPSFDGRLKDIDEDFKRELRNLVPLLLAPENLVEKEISGSKVTCRDLVEYFKAYIKIYQGEELPHPKSMLQATAEANNLAAVAGARDTYCKSMEQVCGGDKPYIAPSDLERKHLDLKEVAIKQFRSVKKMGGDEFCRRYQDQLEAEIEETYANFIKHNDGKNIFYAARTPATLFAVMFAMYIISGLTGFIGLNSIAVLCNLVMGLALIFLCTWAYVKYSGEFREIGTVIDQIAETLWEQVLKPLGDNLMEENIRQSVTNSIKAGLTDQVSHHARLKTD
B5: KSR2 (protein, UniProt Q6VAB6 1-950, looked up)
Kinase suppressor of Ras 2: MDEENMTKSEEQQPLSLQKALQQCELVQNMIDLSISNLEGLRTKCATSNDLTQKEIRTLESKLVKYFSRQLSCKKKVALQERNAELDGFPQLRHWFRIVDVRKEVLEEISPGQLSLEDLLEMTDEQVCETVEKYGANREECARLNASLSCLRNVHMSGGNLSKQDWTIQWPTTETGKENNPVCPPEPTPWIRTHLSQSPRVPSKCVQHYCHTSPTPGAPVYTHVDRLTVDAYPGLCPPPPLESGHRSLPPSPRQRHAVRTPPRTPNIVTTVTPPGTPPMRKKNKLKPPGTPPPSSRKLIHLIPGFTALHRSKSHEFQLGHRVDEAHTPKAKKKSKPLNLKIHSSVGSCENIPSQQRSPLLSERSLRSFFVGHAPFLPSTPPVHTEANFSANTLSVPRWSPQIPRRDLGNSIKHRFSTKYWMSQTCTVCGKGMLFGLKCKNCKLKCHNKCTKEAPPCHLLIIHRGDPARLVRTESVPCDINNPLRKPPRYSDLHISQTLPKTNKINKDHIPVPYQPDSSSNPSSTTSSTPSSPAPPLPPSATPPSPLHPSPQCTRQQKNFNLPASHYYKYKQQFIFPDVVPVPETPTRAPQVILHPVTSNPILEGNPLLQIEVEPTSENEEVHDEAEESEDDFEEMNLSLLSARSFPRKASQTSIFLQEWDIPFEQLEIGELIGKGRFGQVYHGRWHGEVAIRLIDIERDNEDQLKAFKREVMAYRQTRHENVVLFMGACMSPPHLAIITSLCKGRTLYSVVRDAKIVLDVNKTRQIAQEIVKGMGYLHAKGILHKDLKSKNVFYDNGKVVITDFGLFSISGVLQAGRREDKLRIQNGWLCHLAPEIIRQLSPDTEEDKLPFSKHSDVFALGTIWYELHAREWPFKTQPAEAIIWQMGTGMKPNLSQIGMGKEISDILLFCWAFEQEERPTFTKLMDMLEKLPKRNRRLSHPGHFWKSAEL
B6: SURF1 (protein, UniProt Q15526 1-300, looked up)
Surfeit locus protein 1: MAAVAALQLGLRAAGLGRAPASAAWRSVLRVSPRPGVAWRPSRCGSSAAEASATKAEDDSFLQWVLLLIPVTAFGLGTWQVQRRKWKLNLIAELESRVLAEPVPLPADPMELKNLEYRPVKVRGCFDHSKELYMMPRTMVDPVREAREGGLISSSTQSGAYVVTPFHCTDLGVTILVNRGFVPRKKVNPETRQKGQIEGEVDLIGMVRLTETRQPFVPENNPERNHWHYRDLEAMARITGAEPIFIDANFQSTVPGGPIGGQTRVTLRNEHLQYIVTWYGLSAATSYLWFKKFLRGTPGV
B7: EID2 (protein, UniProt Q8N6I1 1-236, looked up)
EP300-interacting inhibitor …: MSKLPADSSVPQTGAANGDRDVPQAEVGRGRREPAPAQPEEAGEGAMAAARGGPVPAAREGRMAAARAAPAAAARGAPVAAAALARAAAAGRESPAAAAAREARMAEVARLLGEPVDEEGPEGRPRSRHGNGGLAALPYLRLRHPLSVLGINYQQFLRHYLENYPIAPGRIQELEERRRRFVEACRAREAAFDAEYQRNPHRVDLDILTFTIALTASEVINPLIEELGCDKFINRE

System: BAF complex subunits and histone proteins
Test: Mass spectrometry proteomics of purified HA-SS18 WT and HA-SS18-SSX1 complexes (Tables 5A-5E)
Parameters: species or system human
Details: HA-SS18SSX1_NE_peptides (Table 5B); HA-SS18-SSX1 BAF complex purification from soluble nuclear extract, HEK-293T

Row | Molecule | Total (peptides) | Unique (peptides)
1 | B1 | 1 | 1
2 | B2 | 1 | 1
3 | B3 | 1 | 1
4 | B4 | 1 | 1
5 | B5 | 1 | 1
6 | B6 | 1 | 1
7 | B7 | 1 | 1

Same assay, conditions: HA-SS18WT_CHR_peptides: protein identified in HA-SS18 WT BAF complex purification from nuclease-treated solubilized chromatin (CHR), HEK-293T

Row | Molecule | Total (total peptides) | Unique (unique peptides)
8 | B7 | 1 | 1

Same assay, conditions: HA-SS18WT_NE_peptides: proteins co-purified with HA-SS18 WT from nuclear extract (NE), HEK-293T

Row | Molecule | Total (peptides) | Unique (peptides)
9 | B4 | 2 | 2
10 | B5 | 1 | 1
